Experimental findings from US20250326838A1 are described below.

The target in experiment [1] is His-tagged mouse Siglec15 protein (mouse). Nature of the experiment: ELISA, His-tagged mouse Siglec15 coated.
The target is the same in experiment [2]. Nature of the experiment: ELISA, plate coated with His-tagged mouse Siglec15. On the technique in general: An ELISA detects its analyte on a solid surface through an enzyme-linked reagent.

These are yes or no findings as the source states them, for the method shown. Binding calls can cover weak binding; strength is not graded here.

B1: 14A7 monoclonal antibody (antibody, V domains shown)
VH: DVQLQESGPGLVKPSQSLSLTCTVTGYSITSDFAWNWIRQFPGNKLEWMGYIRFSGSTTYKPTLKSRISITRDTSKNQFFLQLNSVTTEDSATYYCAREDYDGLFDYWGQGTTLTVTS
VL: DVLMTQTPLSLPVSLGDHASISCRSSQTILHSNGNTYLDWYLQKPGQSPKLLIYKVSNRFSGVPDRFSGSGSGTDFTLKISRVEAEDLGVYYCFQGSHVPYTFGGGTKLEIK
B1: the binding result in experiment [1] and in experiment [2] was “binds” throughout.

B2: 1-10E5 monoclonal antibody (antibody, V domains shown)
VH: DVKLVESGGGLVKPGGSLKLSCVVSGLTFSRYTMSWVRQTPEKRLEWVATISSGGNSTYYPDSVKGRFTISRDDAKDTLYLQMSSLKSEDTAMYYCTNYGYFFDYWGQGTTLTVSS
VL: DIQMTQSPASLSASVGETVTITCRASENIYSFLAWYQQKQGKSPQLLVYNAKTLAEGVPSRFSGSGSGTQFSLKINSLQPEDFGSYYCQHHYDRPLTFGAGTKLELK
With B2, the binding result in experiment [1] and in experiment [2] was “binds” each time.
